{"source": "PubChem BioAssay AID248", "about": "(DTP/NCI, 2004)", "system": "L1210 leukemia ip in BDF1 mice, survival T/C", "assay": "NCI In Vivo Anticancer Drug Screen. Data for tumor model L1210 Leukemia (intraperitoneal) in B6D2F1 (BDF1) mice", "details": "T/C endpoint: median survival time, higher T/C = longer survival", "note": "The list shows only some results of the screen, not a fair sample: it gathers tests that were run many times, whatever their T/C, doses with no T/C, and many T/C values between a quarter and a half above the control. Other doses and runs of a compound stand elsewhere. T/C: endpoint of the treated group in % of that of the vehicle group. For survival time, this PubChem deposit counts one and a half times the control or more as active, and values a quarter to a half above the control carry no call in these data; other NCI protocols may use other cut-offs. Schedules are NCI's codes, taken here to give the interval after Q, in days (D) or hours (H), and the number of doses after X. Marks such as (2×) count equal records among those shown. Some T/C values carry the count of animals alive at the toxicity check (mostly the fifth day); without a count, all were alive then. Some doses were run more than once; the values are given in rising order."}
{"smiles": "CN(C)/N=N/c1nc[nH]c1C(N)=O", "values": [{"measurement": "T/C", "setting": "dose: 180.0 mg/kg/injection, schedule: Q01DX009 (ip), vehicle: Klucel (hydroxypropylcellulose) (HPC), evaluated on day 30", "result": "140 (2×) and 152 % of control"}, {"measurement": "T/C", "setting": "dose: 180.0 mg/kg/injection, schedule: Q01DX009 (ip), vehicle: Klucel (hydroxypropylcellulose) (HPC), evaluated on day 33", "result": "116 % of control"}, {"measurement": "T/C", "setting": "dose: 180.0 mg/kg/injection, schedule: Q01DX011 (ip), vehicle: Klucel (hydroxypropylcellulose) (HPC), evaluated on day 5", "result": "129 % of control"}, {"measurement": "T/C", "setting": "dose: 180.0 mg/kg/injection, schedule: Q01DX011 (ip), vehicle: Klucel (hydroxypropylcellulose) (HPC), evaluated on day 46", "result": "127 % of control"}, {"measurement": "T/C", "setting": "dose: 180.0 mg/kg/injection, schedule: Q01DX012 (ip), vehicle: Klucel (hydroxypropylcellulose) (HPC), evaluated on day 5", "result": "141 % of control"}, {"measurement": "T/C", "setting": "dose: 180.0 mg/kg/injection, schedule: Q01DX012 (ip), vehicle: Klucel (hydroxypropylcellulose) (HPC), evaluated on day 46", "result": "144 % of control"}, {"measurement": "T/C", "setting": "dose: 180.0 mg/kg/injection, schedule: Q01DX015 (ip), vehicle: Klucel (hydroxypropylcellulose) (HPC), evaluated on day 5", "result": "119 and 148 % of control"}, {"measurement": "T/C", "setting": "dose: 180.0 mg/kg/injection, schedule: Q01DX015 (ip), vehicle: Klucel (hydroxypropylcellulose) (HPC), evaluated on day 7", "result": "101 % of control"}, {"measurement": "T/C", "setting": "dose: 180.0 mg/kg/injection, schedule: Q01DX015 (ip), vehicle: Klucel (hydroxypropylcellulose) (HPC), evaluated on day 20", "result": "101 % of control"}, {"measurement": "T/C", "setting": "dose: 180.0 mg/kg/injection, schedule: Q01DX015 (ip), vehicle: Klucel (hydroxypropylcellulose) (HPC), evaluated on day 33", "result": "120 % of control"}, {"measurement": "T/C", "setting": "dose: 180.0 mg/kg/injection, schedule: Q01DX015 (ip), vehicle: Klucel (hydroxypropylcellulose) (HPC), evaluated on day 38", "result": "150 % of control"}, {"measurement": "T/C", "setting": "dose: 180.0 mg/kg/injection, schedule: Q01DX017 (ip), vehicle: Klucel (hydroxypropylcellulose) (HPC), evaluated on day 5", "result": "150 and 151 % of control"}, {"measurement": "T/C", "setting": "dose: 180.0 mg/kg/injection, schedule: Q01DX017 (ip), vehicle: Klucel (hydroxypropylcellulose) (HPC), evaluated on day 33", "result": "150 % of control"}, {"measurement": "T/C", "setting": "dose: 180.0 mg/kg/injection, schedule: Q01DX017 (ip), vehicle: Klucel (hydroxypropylcellulose) (HPC), evaluated on day 38", "result": "155 % of control"}, {"measurement": "T/C", "setting": "dose: 200.0 mg/kg/injection, schedule: Q01DX009 (ip), vehicle: Klucel (hydroxypropylcellulose) (HPC), evaluated on day 24", "result": "150 % of control"}, {"measurement": "T/C", "setting": "dose: 200.0 mg/kg/injection, schedule: Q01DX009 (ip), vehicle: Klucel (hydroxypropylcellulose) (HPC), evaluated on day 26", "result": "140 % of control [7 of 8 alive]"}, {"measurement": "T/C", "setting": "dose: 200.0 mg/kg/injection, schedule: Q01DX009 (ip), vehicle: Klucel (hydroxypropylcellulose) (HPC), evaluated on day 30", "result": "127 and 133 % of control"}, {"measurement": "T/C", "setting": "dose: 200.0 mg/kg/injection, schedule: Q01DX009 (ip), vehicle: Klucel (hydroxypropylcellulose) (HPC), evaluated on day 40", "result": "166 % of control"}, {"measurement": "T/C", "setting": "dose: 200.0 mg/kg/injection, schedule: Q01DX017 (ip), vehicle: steroid suspending solution, evaluated on day 5", "result": "153 % of control"}, {"measurement": "T/C", "setting": "dose: 200.0 mg/kg/injection, schedule: Q01DX017 (ip), vehicle: steroid suspending solution, evaluated on day 30", "result": "133 and 153 % of control"}, {"measurement": "T/C", "setting": "dose: 200.0 mg/kg/injection, schedule: Q01DX017 (ip), vehicle: steroid suspending solution, evaluated on day 40", "result": "150 % of control"}, {"measurement": "T/C", "setting": "dose: 200.0 mg/kg/injection, schedule: Q01DX017 (ip), vehicle: steroid suspending solution, evaluated on day 45", "result": "155 % of control [7 of 8 alive]"}, {"measurement": "T/C", "setting": "dose: 200.0 mg/kg/injection, schedule: Q01DX017 (ip), vehicle: steroid suspending solution, evaluated on day 50", "result": "144 and 150 % of control [7 of 8 alive]"}, {"measurement": "T/C", "setting": "dose: 200.0 mg/kg/injection, schedule: Q01DX017 (ip), vehicle: steroid suspending solution, evaluated on day 54", "result": "150, 155, 156 % of control"}, {"measurement": "T/C", "setting": "dose: 200.0 mg/kg/injection, schedule: Q01DX017 (ip), vehicle: steroid suspending solution, evaluated on day 60", "result": "150 % of control"}, {"measurement": "T/C", "setting": "dose: 200.0 mg/kg/injection, schedule: Q01DX017 (ip), vehicle: steroid suspending solution, evaluated on day 69", "result": "150 % of control"}, {"measurement": "T/C", "setting": "dose: 300.0 mg/kg/injection, schedule: Q01DX009 (ip), vehicle: Klucel (hydroxypropylcellulose) (HPC), evaluated on day 5", "result": "168 % of control (2×)"}, {"measurement": "T/C", "setting": "dose: 300.0 mg/kg/injection, schedule: Q01DX009 (ip), vehicle: Klucel (hydroxypropylcellulose) (HPC), evaluated on day 27", "result": "168 % of control [7 of 8 alive]"}, {"measurement": "T/C", "setting": "dose: 300.0 mg/kg/injection, schedule: Q01DX009 (ip), vehicle: Klucel (hydroxypropylcellulose) (HPC), evaluated on day 30", "result": "120 [7 of 8 alive], 145, 168 % of control"}, {"measurement": "T/C", "setting": "dose: 300.0 mg/kg/injection, schedule: Q01DX009 (ip), vehicle: Klucel (hydroxypropylcellulose) (HPC), evaluated on day 33", "result": "111 % of control"}, {"measurement": "T/C", "setting": "dose: 300.0 mg/kg/injection, schedule: Q01DX012 (ip), vehicle: Klucel (hydroxypropylcellulose) (HPC), evaluated on day 5", "result": "141 % of control"}, {"measurement": "T/C", "setting": "dose: 300.0 mg/kg/injection, schedule: Q01DX012 (ip), vehicle: Klucel (hydroxypropylcellulose) (HPC), evaluated on day 46", "result": "144 % of control"}, {"measurement": "T/C", "setting": "dose: 300.0 mg/kg/injection, schedule: Q01DX015 (ip), vehicle: Klucel (hydroxypropylcellulose) (HPC), evaluated on day 5", "result": "141 and 154 % of control"}, {"measurement": "T/C", "setting": "dose: 300.0 mg/kg/injection, schedule: Q01DX015 (ip), vehicle: Klucel (hydroxypropylcellulose) (HPC), evaluated on day 7", "result": "106 % of control"}, {"measurement": "T/C", "setting": "dose: 300.0 mg/kg/injection, schedule: Q01DX015 (ip), vehicle: Klucel (hydroxypropylcellulose) (HPC), evaluated on day 20", "result": "106 % of control"}, {"measurement": "T/C", "setting": "dose: 300.0 mg/kg/injection, schedule: Q01DX015 (ip), vehicle: Klucel (hydroxypropylcellulose) (HPC), evaluated on day 33", "result": "140 % of control"}, {"measurement": "T/C", "setting": "dose: 300.0 mg/kg/injection, schedule: Q01DX015 (ip), vehicle: Klucel (hydroxypropylcellulose) (HPC), evaluated on day 38", "result": "155 % of control"}, {"measurement": "T/C", "setting": "dose: 300.0 mg/kg/injection, schedule: Q01DX017 (ip), vehicle: Klucel (hydroxypropylcellulose) (HPC), evaluated on day 5", "result": "121 and 128 % of control"}, {"measurement": "T/C", "setting": "dose: 300.0 mg/kg/injection, schedule: Q01DX017 (ip), vehicle: Klucel (hydroxypropylcellulose) (HPC), evaluated on day 33", "result": "130 % of control [7 of 8 alive]"}, {"measurement": "T/C", "setting": "dose: 300.0 mg/kg/injection, schedule: Q01DX017 (ip), vehicle: Klucel (hydroxypropylcellulose) (HPC), evaluated on day 38", "result": "122 % of control"}, {"measurement": "T/C", "setting": "dose: 300.0 mg/kg/injection, schedule: Q04DX003 (ip), vehicle: steroid suspending solution", "result": "140 % of control"}]}
